Counter-ions that a name gives are not always drawn. ± gives the standard deviation of the averaged measurements. The list shows a part of the results. Single values are uncertain, as repeats are few or missing.
System: RAW 264.7
Assay: HMGB1-induced TNF-alpha production relative to HMGB1-stimulated control; higher = more TNF-alpha secretion (less inhibition)
Conditions: stimulus: HMGB1 5 ug/ml, 18 h
[1] = compound concentration: 1 ug/ml

Structure (SMILES) | HMGB1-induced TNF-alpha production [1] [%] | HMGB1-induced TNF-alpha production (compound concentration: 3 uM) [%]
O=c1cc(-c2ccccc2O)oc2c1ccc1ccccc12 | 51.6 | 
CCn1ccnc1CC1COc2ccccc2O1 (centres undefined) [Imiloxan hydrochloride] |  | 88.9
O=c1cc(-c2cccc(O)c2)oc2cc(O)ccc12 | 75.7 | 
CNC(C)C1CCC(N)C(OC2C(N)CC(N)C(OC3OCC(C)(O)C(NC)C3O)C2O)O1 (centres undefined) [Gentamycin] |  | 99.9
O=C1CC2(CCCC2)CC(=O)N1CCCCN1CCN(c2ncccn2)CC1 |  | 86.6
O=C1CC2(CCCC2)CC(=O)N1CCCCN1CCN(c2ncccn2)CC1 [Buspirone] |  | 83.1
O=C1CC2(CCCC2)CC(=O)N1CCCCN1CCN(c2ncccn2)CC1 [Buspirone hydrochloride] |  | 83.4 ± 15
CC[C@H]1OC(=O)[C@H](C)[C@@H](O[C@H]2C[C@@](C)(OC)[C@@H](O)[C@H](C)O2)[C@H](C)[C@@H](O[C@@H]2O[C@H](C)C[C@H](N(C)C)[C@H]2O)[C@](C)(O)C[C@@H](C)[C@@H]2N[C@@H](COCCOC)O[C@H]([C@H]2C)[C@]1(C)O [Dirithromycin] |  | 71.5
CC[C@H]1OC(=O)[C@H](C)[C@@H](O[C@H]2C[C@@](C)(OC)[C@@H](O)[C@H](C)O2)[C@H](C)[C@@H](O[C@@H]2O[C@H](C)C[C@H](N(C)C)[C@H]2O)[C@](C)(O)C[C@@H](C)[C@@H]2N[C@@H](COCCOC)O[C@H]([C@H]2C)[C@]1(C)O |  | 72.5
Cc1cc(C)c(/C=C2\C(=O)Nc3ccccc32)[nH]1 |  | 87.5
c1ccc(C(NCc2cccnc2)(c2ccccc2)c2ccccc2)cc1 |  | 75.8
Cc1cccc(C#Cc2ccccc2)n1 [6-Methyl-2-(phenylethynyl)pyridine hydrochloride] |  | 113
N[C@H](C(=O)O)c1cc(O)cc(O)c1 [(S)-3,5-Dihydroxyphenylglycine] |  | 90.8
C[C@H](O)C(=O)Nc1c(I)c(C(=O)NC(CO)CO)c(I)c(C(=O)NC(CO)CO)c1I [Iopamidol] |  | 113
COc1ccc2c(c1)C(=O)CC(c1cccc(OC)c1OC)O2 (centres undefined) [2',3',6-Trimethoxyflavanone] | 69.3 | 
O=c1cc[nH]c(=S)[nH]1 [2-Thiouracile] | 62.1 | 
O=c1cc[nH]c(=S)[nH]1 |  | 83
CC(C)CC(=O)N[C@H](C(=O)N[C@H](C(=O)N[C@@H](CC(C)C)[C@@H](O)CC(=O)N[C@@H](C)C(=O)N[C@@H](CC(C)C)[C@@H](O)CC(=O)O)C(C)C)C(C)C [Pepstatin A] |  | 86.6
COc1c(-c2ccc(O)c(O)c2)oc2cc(O)cc(O)c2c1=O [Quercetin 3-methyl ether] | 76.9 | 
O=c1cc(-c2ccc(O)c(O)c2)oc2cc(O[C@@H]3O[C@H](CO)[C@@H](O)[C@H](O)[C@H]3O)cc(O)c12 [Luteolin-7-glucoside] | 69.8 | 
Cc1cn(C2OC(CO)C(O)C2O)c(=S)[nH]c1=O (centres undefined) [5-Methyl-2-thiouridine] | 80 | 
COc1ccc(C(=O)Nc2ccn([C@H]3C[C@H](O)[C@@H](CO)O3)c(=O)n2)cc1 [N4-Anisoyl-2'-deoxycytidine] | 95.9 | 
C[C@@H]1C[C@H]2[C@@H]3C[C@H](F)C4=CC(=O)C(Cl)=C[C@]4(C)[C@@]3(F)[C@@H](O)C[C@]2(C)[C@@]1(O)C(=O)CO |  | 39.5
C=CCN1CCc2c(cc(O)c(O)c2Br)[C@@H](c2ccccc2)C1 [R(+)-6-Bromo-APB hydrobromide] |  | 94.4
N[C@@H](CS(=O)(=O)O)C(=O)O [L-Cysteic acid monohydrate] | 67.5 | 

Structure (SMILES) | HMGB1-induced TNF-alpha production [1] [%] | HMGB1-induced TNF-alpha production (compound concentration: 3 uM) [%]
O=C(NCC(O)CO)c1c(I)c(C(=O)NCC(O)CO)c(I)c(N(CCO)C(=O)CO)c1I (centres undefined) [Ioversol] |  | 110
CO/N=C(\C(=O)N[C@@H]1C(=O)N2C(C(=O)O)=C(COC(N)=O)CS[C@H]12)c1ccco1 [Cefuroxime sodium salt] |  | 80.5
CO/N=C(\C(=O)N[C@@H]1C(=O)N2C(C(=O)O)=C(COC(N)=O)CS[C@H]12)c1ccco1 |  | 97
Nc1ccc(S(=O)(=O)Nc2ccnn2-c2ccccc2)cc1 |  | 85.6
Nc1ccc(S(=O)(=O)Nc2ccnn2-c2ccccc2)cc1 [Sulfaphenazole] |  | 89 ± 33
CCC(=O)c1c(O)cc(O)cc1O |  | 74.6
CC1Cc2ccccc2N1NC(=O)c1ccc(Cl)c(S(N)(=O)=O)c1 (centres undefined) |  | 89.5
CC1Cc2ccccc2N1NC(=O)c1ccc(Cl)c(S(N)(=O)=O)c1 (centres undefined) [Indapamide] |  | 42.8 ± 60
Nc1nc2[nH]c(=O)cnc2c(=O)[nH]1 [Isoxanthopterin] |  | 100
CC(C)(C)[C@]1(O)CCN2C[C@H]3c4ccccc4CCc4cccc(c43)[C@@H]2C1 (racemic) [(±)-Butaclamol hydrochloride] |  | 79.2
CC(C)(C)[C@]1(O)CCN2C[C@H]3c4ccccc4CCc4cccc(c43)[C@@H]2C1 [Butaclamol (+)] |  | 104
CC(C)(C)[C@]1(O)CCN2C[C@H]3c4ccccc4CCc4cccc(c43)[C@@H]2C1 [(+)-Butaclamol hydrochloride] |  | 113
O=c1cc(-c2ccc(O)cc2)oc2cccc(O)c12 [4',5-Dihydroxyflavone] | 70.8 | 
CC(C)C[C@@H]1NC(=O)[C@H](CCCN)NC(=O)[C@H](C(C)C)NC(=O)[C@H](Cc2ccc(O)cc2)N[C@@H](CCC(=O)O)C(=O)N[C@@H](CC(N)=O)C(=O)[C@@H](Cc2ccccc2)NC(=O)[C@H](Cc2ccccc2)NC(=O)[C@@H]2CCCN2C(=O)[C@@H](Cc2ccccc2)NC1=O |  | 31.3
COc1ccc2cc(C(C)C(=O)O)ccc2c1 (centres undefined) |  | 87
Nc1ncnc2c1nc(Sc1ccc(Cl)cc1)n2C1OC2COP(=O)(O)O[C@@H]2[C@@H]1O (some centres undefined) [8-(4-Chlorophenylthio)-cAMP sodium] |  | 53.5
COC(=O)CC[C@@H](C)[C@H]1CC[C@H]2[C@@H]3[C@H](O)C[C@@H]4C[C@H](O)CC[C@]4(C)[C@H]3C[C@H](O)[C@]12C [Methyl cholate] | 43.9 | 
NCCNC(=O)c1ncsc1-c1cccc(F)c1 [Ro 41-1049 hydrochloride] |  | 103
Cc1cc(CC(=O)O)n(C)c1C(=O)c1ccc(Cl)cc1 [Zomepirac sodium salt] |  | 89.7
Cc1cc(CC(=O)O)n(C)c1C(=O)c1ccc(Cl)cc1 |  | 101
CCCCCCCCCCCCCCCC(=O)O[C@@H]1[C@@H](O)[C@@H](O)[C@@H]([C@H](NC(=O)[C@@H]2C[C@@H](CCC)CN2C)[C@H](C)Cl)O[C@@H]1SC |  | 86.7
CCCCCCCCCCCCCCCC(=O)O[C@@H]1[C@@H](O)[C@@H](O)[C@@H]([C@H](NC(=O)[C@@H]2C[C@@H](CCC)CN2C)[C@H](C)Cl)O[C@@H]1SC [Clindamycin palmitate] |  | 95.6
O=C(O)C1=CCCNC1 [Guvacine hydrochloride] |  | 85.2
CC(=O)Nc1ncc([N+](=O)[O-])s1 |  | 89.1
OC1(c2ccc(Cl)c(C(F)(F)F)c2)CCN(CCCC(c2ccc(F)cc2)c2ccc(F)cc2)CC1 |  | 84.6

Structure (SMILES) | HMGB1-induced TNF-alpha production [1] [%] | HMGB1-induced TNF-alpha production (compound concentration: 3 uM) [%]
C[C@@H]1C[C@H]2[C@@H]3CCC4=CC(=O)C=C[C@]4(C)[C@@]3(F)[C@@H](O)C[C@]2(C)[C@@]1(O)C(=O)CO [Dexamethasone] |  | 43.1
C[C@@H]1C[C@H]2[C@@H]3CCC4=CC(=O)C=C[C@]4(C)[C@@]3(F)[C@@H](O)C[C@]2(C)[C@@]1(O)C(=O)CO |  | 29.6
O=C(O)COC(=O)Cc1ccccc1Nc1c(Cl)cccc1Cl [Aceclofenac] |  | 94.4 ± 1.3
Cc1cnc(NC(=O)C2=C(O)c3ccccc3S(=O)(=O)N2C)s1 |  | 91.6
Cc1cnc(NC(=O)C2=C(O)c3ccccc3S(=O)(=O)N2C)s1 [Meloxicam] |  | 65.5 ± 20
Cc1cnc(NC(=O)C2=C(O)c3ccccc3S(=O)(=O)N2C)s1 [Meloxicam sodium] |  | 113
CC(C)NCC(O)COc1ccc(CC(N)=O)cc1 (racemic) [(±)-Atenolol] |  | 96.8
O=C(O)CCCc1ccccc1 [Sodium Phenylbutyrate] |  | 78.4
CC1(C)O[C@@H]2C[C@H]3[C@@H]4CCC5=CC(=O)C=C[C@]5(C)[C@@]4(F)[C@@H](O)C[C@]3(C)[C@]2(C(=O)CO)O1 |  | 42.6
N=C(N)SCCc1c[nH]cn1 [Imetit dihydrobromide] |  | 98.9
COc1cc2ccc(=O)oc2cc1OC1OC(COC2OC(C)C(O)C(O)C2O)C(O)C(O)C1OC1OC(C)C(O)C(O)C1O (centres undefined) [Haploperozide] | 71.1 | 
C1CCN2C[C@@H]3C[C@@H](CN4CCCC[C@@H]34)[C@H]2C1 |  | 93.3
O=C(N[C@@H](Cc1c[nH]c2ccccc12)C(=O)O)OCC1c2ccccc2-c2ccccc21 [Nalpha-FMOC-L-Tryptophan] | 73.7 | 
CC1CC(OC(=O)C(O)c2ccccc2)CC(C)(C)N1C (centres undefined) |  | 92.4
CC1CC(OC(=O)C(O)c2ccccc2)CC(C)(C)N1C (centres undefined) [Eucatropine hydrochloride] |  | 109
OC[C@H]1O[C@@H](n2cnc3c(NCc4ccco4)ncnc32)[C@H](O)[C@@H]1O [Kinetin-9-riboside] | 74.3 | 
CCCCCCCC/C=C/CCCCCCCCOP(=O)([O-])OCC[N+](C)(C)C |  | 106
Cc1nnc(NS(=O)(=O)c2ccc(N)cc2)s1 [Sulfamethizole] |  | 101
Cc1nnc(NS(=O)(=O)c2ccc(N)cc2)s1 |  | 85.3
CN(C)c1ccc(/C=C2/C(=O)Nc3ccccc32)cc1 |  | 110
COc1cc(NS(C)(=O)=O)ccc1Nc1c2ccccc2nc2ccccc12 [Amsacrine hydrochloride] |  | 71.3
COc1cc(NS(C)(=O)=O)ccc1Nc1c2ccccc2nc2ccccc12 |  | 96.1 ± 35
CCN1CCC[C@H]1CNC(=O)c1c(OC)ccc(Br)c1OC [Remoxipride Hydrochloride] |  | 68
CCN1CCC[C@H]1CNC(=O)c1c(OC)ccc(Br)c1OC [Remoxipride] |  | 92.1

Retrieved one by one from the entries so far, 3 records:
Structure (SMILES) | HMGB1-induced TNF-alpha production [1] [%] | HMGB1-induced TNF-alpha production (compound concentration: 3 uM) [%]
O=C(N[C@@H](Cc1c[nH]c2ccccc12)C(=O)O)OCC1c2ccccc2-c2ccccc21 [Nalpha-FMOC-L-Tryptophan] | 73.7 | 
CCN1CCC[C@H]1CNC(=O)c1c(OC)ccc(Br)c1OC [Remoxipride Hydrochloride] |  | 68
COc1cc(NS(C)(=O)=O)ccc1Nc1c2ccccc2nc2ccccc12 |  | 96.1 ± 35
